Test results published in the supplement of paper PMC8007513.
Some of the results follow. Repeats are few or missing, and single values can be far off.

These molecules were tested on Saccharomyces cerevisiae BY4743 (assay: growth (OD600) relative to untreated control; higher = less growth inhibition). Details: compound concentration: 133 uM; 20 h.
Experimental: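 NMCCC compounds (133 uM, no IPBC) tested alone against Saccharomyces cerevisiae BY4743 in YPD, 96-well plates, starting OD600 ~0.1. Growth was read as OD600 at 20 h and expressed as % of the untreated control. Single pass.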
Work on `CC1=CC=C(NC(=O)\C2=C\CN(CC2)CC3=CC=C(F)C=C3)C=C1F` yielded a growth of 113%.
`COc1ccc(OC)c(C(C)NC(=O)CSc2nc(C)c(C)c(C)c2C#N)c1` (stereo not drawn) gave a growth of 104%.
Molecule `CCN(CC)c1ccc(C(=O)Nc2nc(C)c(SCC#N)s2)cn1` has a growth of 74.3%.
`CN(C(=O)COCc1cc(-c2ccc(F)cc2)on1)c1ccccc1` gave a growth of 104%.
`CC(C)N(C(=O)CSc1nnc(-c2cccnc2)n1-c1cccc(C(F)(F)F)c1)C(C)C` gave a growth of 108%.
Work on `CC(C)C1O\C(=N/C1=O)NC(=O)NC(C)(C)C2=CC=CC(=C2)C(C)=C` (stereo not drawn) yielded a growth of 108%.
For `COc1ccc(NC(C)=O)cc1NC(=O)CN(C)Cc1ccc(C(C)(C)C)cc1`, the growth was 108%.
`COc1ccc(CCNc2cc(-c3ccccc3)ncn2)cc1OC` showed a growth of 96%.
In the case of `COC(=O)c1sc(-n2cccc2)c(C(=O)OC)c1C`, the growth is reported as 101%.
Molecule `CN(CC1=C(C)ON=C1C)C/2=C(\Cl)C(=O)N(/N=C2)C3=CC=C(C=N3)C(F)(F)F` has a growth of 89.5%.
Molecule `Cc1ccc(CNn2nnnc2N)s1` has a growth of 92.6%.
`CC(C)(C)NC(=O)CN1CCCN(C(=O)CCc2ccc(S(=O)(=O)N3CCOCC3)cc2)CC1` gave a growth of 112%.
`CCOC(=O)N1CCN(C(=O)Cn2nc(C)c3ccccc32)CC1` showed a growth of 103%.
For `CCN(CC)[S](=O)(=O)C1=CC(=CC=C1C)C/2=N/N(CC(=O)NC3=CC=C(C=C3)C(C)=O)C(=O)/C=C2`, the growth was 78.3%.
In the case of `Cc1ccc(-n2nc(C)c(C(=O)NCC(=O)NCc3ccco3)n2)c(C)c1`, the growth is reported as 106%.
Work on `CCCn1c(O)nnc1SCc1cc(C(=O)OC)c(C)o1` yielded a growth of 110%.
With `COc1ccc(-c2nc(C(=O)OCC(=O)Nc3sccc3C(N)=O)cs2)cc1OC` the growth was 117%.
`COc1cc(NC(=O)c2cccnc2Sc2ccccc2)cc(OC)c1` was tested, and the growth was 102%.
Work on `CCCc1nnc(CSc2nnc(-c3ccc(NC(C)=O)cc3)o2)o1` yielded a growth of 108%.
`COc1ccc(Cl)cc1NC(=O)CSc1nccn1C1CCCC1` was tested, and the growth was 96%.
In the case of `Cc1ccc(S(C)(=O)=O)cc1C(=O)Nc1nc2cc(Cl)ccc2n1C`, the growth is reported as 84.4%.
In the case of `Cc1ccccc1OCCN1C(=O)C(=O)c2cccc(C)c21`, the growth is reported as 109%.
Molecule `CC(C)NC(=O)CCCc1nnc2n(C)c(=O)c3sccc3n12` has a growth of 96.7%.
`NC(=O)NC(CC(=O)OCC(=O)c1ccc(F)cc1)c1ccccc1Cl` (stereo not drawn) showed a growth of 103%.
Molecule `CCCN(CCC)C(=O)c1oc2ccccc2c1NC(=O)c1ccco1` has a growth of 99.4%.
`O=C(CCNc1nc(Cl)nc2nc[nH]c12)NCCc1c[nH]cn1` showed a growth of 105%.
In the case of `COc1ccccc1OCCn1c(=O)oc2ccc(C)cc21`, the growth is reported as 107%.
`CC1=CC\2=C(C=C1C)N(CC(=O)NCC3=CC=C(Cl)C=C3)C(=O)\C(=N2)C(F)(F)F` gave a growth of 88.6%.
With `Fc1ccc(-c2ccc(NCCc3cccs3)nn2)cc1` the growth was 90.9%.
With `Cc1cnc(NC(=O)CN2CSCC2=O)s1` the growth was 91.7%.
Molecule `Cc1cc(C(=O)O)cc(S(=O)(=O)Nc2ccccc2OC(F)F)c1C` has a growth of 102%.
Molecule `Cn1ncc2c(SCCC(=O)Nc3ccccc3F)ncnc21` has a growth of 82%.
Molecule `CCC(=O)OCC/1=C/C(=O)N/2\N=C(/SC2=N1)C(C)C` has a growth of 102%.
`CCCN(CCC)S(=O)(=O)c1ccc2c(c1)N(CC(=O)OC)C(=O)CS2` was tested, and the growth was 112%.
With `Cc1ccccc1S(=O)(=O)Nc1ncc(C(F)(F)F)cc1Cl` the growth was 109%.
`CN(Cc1ccc(Cl)s1)C(=O)CSc1nnc(-c2ccc[nH]2)o1` gave a growth of 87.9%.
`CCOc1ccc(NC(=O)C2CCCCN2S(=O)(=O)c2ccc(Br)cc2)cc1` (stereo not drawn) was tested, and the growth was 106%.
With `COc1cc(NCC(=O)N2CCC(C)Sc3ccccc32)c(OC)cc1Cl` (stereo not drawn) the growth was 104%.
